# In the supplement of paper PMC8728848:
# Some of the results follow.
# B1: Protein L(A-C2) (Finegoldia magna), Q51912 (protein)
# chain: ADEPIDLEKLEEKRDKENVGNLPKFDNEVKDGSENPMAKYPDFDDEASTRFETENNEFEEKKVVSDNFFDQSEHPFVENKEETPETPETDSEEEVTIKANLIFANGSTQTAEFKGTFEKATSEAYAYADTLKKDNGEYTVDVADKGYTLNIKFAGKEKTPEEPKEEVTIKANLIYADGKTQTAEFKGTFEEATAEAYRYADALKKDNGEYTVDVADKGYTLNIKFAGKEKTPEEPKEEVTIKANLIYADGKTQTAEFKGTFEEATAEAYRYADLLAKENGKYTVDVADKGYTLNIKFAGKEKTPEEPKEEVTIKANLIYADGKTQTAEFKGTFAEATAEAYRYADLLAKENGKYTADLEDGGYTINIRFAGKKVDEKPEEKEQVTIKENIYFEDGTVQTATFKGTFAEATAEAYRYADLLSKEHGKYTADLEDGGYTINIRFAGKEEPEETPEKPEVQDGYASYEEAEAAAKEALKNDDVNKSYTIRQGADGRYYYVLSPVEAEEEKPEAQNGYATYEEAEAAAKKALENDPINKSYSIRQGADGRYYYVLSPVEAE
# Experiments:
# Assay in all cases: glycan array binding signal (z-score within array); higher = stronger binding
# Conditions in all cases: glycan notation: IUPAC condensed, linker removed
# [1] = biological target: Gal(a1-3)Gal(b1-4)GlcNAc(b1-2)Man
# Outline: (§1)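 Negative Z-scores can be read as non-binding. The Z-score is calculated within each array and then averaged across arrays of one protein sequence at different concentrations or buffers and across linkers. Arrays, 3228 in all, were curated from the Consortium for Functional Glycomics database and kept only where the protein sequence was available.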
# [2] = biological target: Gal(a1-3)Gal(b1-4)GlcNAc(b1-2)Man(a1-3)[Gal(a1-3)Gal(b1-4)GlcNAc(b1-2)Man(a1-6)]Man(b1-4)GlcNAc(b1-4)GlcNAc
# Outline: as §1
# [3] = biological target: Gal(a1-3)Gal(b1-4)GlcNAc(b1-3)GalNAc
# Outline: as §1
# [4] = biological target: Gal(a1-3)Gal(b1-4)GlcNAc(b1-6)GalNAc
# Outline: as §1
# [5] = biological target: Gal(a1-3)Gal(b1-4)[Fuc(a1-3)]GlcNAc
# Outline: as §1
# [6] = biological target: Gal(a1-3)Gal(b1-4)[Fuc(a1-3)]GlcNAc(b1-2)Man(a1-3)[Gal(a1-3)Gal(b1-4)[Fuc(a1-3)]GlcNAc(b1-2)Man(a1-6)]Man(b1-4)GlcNAc(b1-4)GlcNAc
# Outline: as §1
# [7] = biological target: Gal(a1-3)GalNAc
# Outline: as §1
# [8] = biological target: Gal(a1-3)[Gal(a1-4)]Gal(b1-4)GlcNAc
# Outline: as §1
# [9] = biological target: Gal(a1-4)Gal(b1-3)GlcNAc(b1-2)Man(a1-3)[Gal(a1-4)Gal(b1-3)GlcNAc(b1-2)Man(a1-6)]Man(b1-4)GlcNAc(b1-4)GlcNAc
# Outline: as §1
# [10] = biological target: Gal(a1-4)Gal(b1-4)Glc
# Outline: as §1
# [11] = biological target: Gal(a1-4)Gal(b1-4)GlcNAc
# Outline: as §1
# [12] = biological target: Gal(a1-4)Gal(b1-4)GlcNAc(b1-2)Man(a1-3)[Gal(a1-4)Gal(b1-4)GlcNAc(b1-2)Man(a1-6)]Man(b1-4)GlcNAc(b1-4)GlcNAc
# Outline: as §1
# [13] = biological target: Gal(a1-4)Gal(b1-4)GlcNAc(b1-3)Gal(b1-4)Glc
# Outline: as §1
# [14] = biological target: Gal(a1-4)GlcNAc
# Outline: as §1
# [15] = biological target: Gal(a1-6)Glc
# Outline: as §1
# [16] = biological target: Gal(b1-2)Gal
# Outline: as §1
# [17] = biological target: Gal(b1-3)Gal
# Outline: as §1
# [18] = biological target: Gal(b1-3)Gal(b1-4)GlcNAc
# Outline: as §1
# [19] = biological target: Gal(b1-3)GalNAc
# Outline: as §1
# [20] = biological target: Gal(b1-3)GalNAc(a1-3)[Fuc(a1-2)]Gal(b1-4)Glc
# Outline: as §1
# [21] = biological target: Gal(b1-3)GalNAc(a1-3)[Fuc(a1-2)]Gal(b1-4)GlcNAc
# Outline: as §1
# [22] = biological target: Gal(b1-3)GalNAc(b1-3)Gal
# Outline: as §1
# [23] = biological target: Gal(b1-3)GalNAc(b1-3)Gal(a1-4)Gal(b1-4)Glc
# Outline: as §1
# [24] = biological target: Gal(b1-3)GalNAc(b1-4)Gal(b1-4)Glc
# Outline: as §1
# [25] = biological target: Gal(b1-3)GalNAc(b1-4)[Neu5Ac(a2-3)]Gal(b1-4)Glc
# Outline: as §1
# [26] = biological target: Gal(b1-3)GlcNAc
# Outline: as §1
# [27] = biological target: Gal(b1-3)GlcNAc(a1-3)Gal(b1-4)GlcNAc
# Outline: as §1
# [28] = biological target: Gal(b1-3)GlcNAc(a1-6)Gal(b1-4)GlcNAc
# Outline: as §1
# [29] = biological target: Gal(b1-3)GlcNAc(b1-2)Man
# Outline: as §1
# [30] = biological target: Gal(b1-3)GlcNAc(b1-2)Man(a1-3)[Gal(b1-3)GlcNAc(b1-2)Man(a1-6)]Man(b1-4)GlcNAc(b1-4)GlcNAc
# Outline: as §1
# [31] = biological target: Gal(b1-3)GlcNAc(b1-2)Man(a1-3)[Gal(b1-3)GlcNAc(b1-2)Man(a1-6)]Man(b1-4)GlcNAc(b1-4)[Fuc(a1-6)]GlcNAc
# Outline: as §1
# [32] = biological target: Gal(b1-3)GlcNAc(b1-2)Man(a1-3)[GlcNAc(b1-4)][Gal(b1-3)GlcNAc(b1-2)Man(a1-6)]Man(b1-4)GlcNAc(b1-4)GlcNAc
# Outline: as §1
# [33] = biological target: Gal(b1-3)GlcNAc(b1-2)[Gal(b1-3)GlcNAc(b1-6)]Man(a1-6)[Gal(b1-3)GlcNAc(b1-2)Man(a1-3)]Man(b1-4)GlcNAc(b1-4)GlcNAc
# Outline: as §1
# [34] = biological target: Gal(b1-3)GlcNAc(b1-3)Gal(b1-3)GlcNAc
# Outline: as §1
# [35] = biological target: Gal(b1-3)GlcNAc(b1-3)Gal(b1-4)Glc
# Outline: as §1
# [36] = biological target: Gal(b1-3)GlcNAc(b1-3)Gal(b1-4)GlcNAc
# Outline: as §1
# [37] = biological target: Gal(b1-3)GlcNAc(b1-3)Gal(b1-4)GlcNAc(b1-2)Man(a1-3)[Gal(b1-3)GlcNAc(b1-3)Gal(b1-4)GlcNAc(b1-2)Man(a1-6)]Man(b1-4)GlcNAc(b1-4)GlcNAc
# Outline: as §1
# [38] = biological target: Gal(b1-3)GlcNAc(b1-3)Gal(b1-4)GlcNAc(b1-2)[Gal(b1-3)GlcNAc(b1-3)Gal(b1-4)GlcNAc(b1-6)]Man(a1-6)[Gal(b1-3)GlcNAc(b1-3)Gal(b1-4)GlcNAc(b1-2)Man(a1-3)]Man(b1-4)GlcNAc(b1-4)[Fuc(a1-6)]GlcNAc
# Outline: as §1
# [39] = biological target: Gal(b1-3)GlcNAc(b1-3)Gal(b1-4)GlcNAc(b1-3)Gal(b1-4)GlcNAc(b1-2)[Gal(b1-3)GlcNAc(b1-3)Gal(b1-4)GlcNAc(b1-3)Gal(b1-4)GlcNAc(b1-6)]Man(a1-6)[Gal(b1-3)GlcNAc(b1-3)Gal(b1-4)GlcNAc(b1-3)Gal(b1-4)GlcNAc(b1-2)Man(a1-3)]Man(b1-4)GlcNAc(b1-4)[Fuc(a1-6)]GlcNAc
# Outline: as §1
# [40] = biological target: Gal(b1-3)GlcNAc(b1-3)Gal(b1-4)GlcNAc(b1-6)[Gal(b1-3)GlcNAc(b1-3)]Gal(b1-4)Glc
# Outline: as §1
# [41] = biological target: Gal(b1-3)GlcNAc(b1-3)Gal(b1-4)[Fuc(a1-3)]GlcNAc(b1-6)[Gal(b1-3)GlcNAc(b1-3)]Gal(b1-4)Glc
# Outline: as §1
# [42] = biological target: Gal(b1-3)GlcNAc(b1-3)GalNAc
# Outline: as §1
# [43] = biological target: Gal(b1-3)GlcNAc(b1-6)Gal(b1-4)GlcNAc
# Outline: as §1
# [44] = biological target: Gal(b1-3)GlcNAc(b1-6)GalNAc
# Outline: as §1
# [45] = biological target: Gal(b1-3)GlcNAc(b1-6)[Gal(b1-3)]GalNAc
# Outline: as §1
# [46] = biological target: Gal(b1-3)GlcNAc6S
# Outline: as §1
# [47] = biological target: Gal(b1-3)[Fuc(a1-4)]GlcNAc
# Outline: as §1
# [48] = biological target: Gal(b1-3)[Fuc(a1-4)]GlcNAc(b1-2)Man
# Outline: as §1
# [49] = biological target: Gal(b1-3)[Fuc(a1-4)]GlcNAc(b1-2)Man(a1-3)[Gal(b1-3)[Fuc(a1-4)]GlcNAc(b1-2)Man(a1-6)]Man(b1-4)GlcNAc(b1-4)[Fuc(a1-6)]GlcNAc
# Outline: as §1
# [50] = biological target: Gal(b1-3)[Fuc(a1-4)]GlcNAc(b1-3)Gal(b1-3)[Fuc(a1-4)]GlcNAc
# Outline: as §1
# [51] = biological target: Gal(b1-3)[Fuc(a1-4)]GlcNAc(b1-3)Gal(b1-4)GlcNAc
# Outline: as §1
# [52] = biological target: Gal(b1-3)[Fuc(a1-4)]GlcNAc(b1-3)Gal(b1-4)[Fuc(a1-3)]GlcNAc
# Outline: as §1
# [53] = biological target: Gal(b1-3)[Fuc(a1-4)]GlcNAc(b1-6)GalNAc
# Outline: as §1
# [54] = biological target: Gal(b1-3)[GlcNAc(b1-6)]GalNAc
# Outline: as §1
# [55] = biological target: Gal(b1-3)[Neu5Ac(a2-6)]GalNAc
# Outline: as §1
# [56] = biological target: Gal(b1-3)[Neu5Ac(a2-6)]GlcNAc(b1-4)Gal(b1-4)Glc
# Outline: as §1
# [57] = biological target: Gal(b1-3)[Neu5Ac(b2-6)]GalNAc
# Outline: as §1
# [58] = biological target: Gal(b1-4)Gal
# Outline: as §1
# [59] = biological target: Gal(b1-4)GalNAc(a1-3)[Fuc(a1-2)]Gal(b1-4)GlcNAc
# Outline: as §1
# [60] = biological target: Gal(b1-4)GalNAc(b1-3)[Fuc(a1-2)]Gal(b1-4)GlcNAc
# Outline: as §1
binder,measurement,setting,value
B1,glycan array binding signal (z-score),[1],-0.252
same,glycan array binding signal (z-score),[2],1.8
same,glycan array binding signal (z-score),[3],-0.633
same,glycan array binding signal (z-score),[4],-0.284
same,glycan array binding signal (z-score),[5],-0.572
same,glycan array binding signal (z-score),[6],-0.563
same,glycan array binding signal (z-score),[7],0.433
same,glycan array binding signal (z-score),[8],0.709
same,glycan array binding signal (z-score),[9],-0.145
same,glycan array binding signal (z-score),[10],0.175
same,glycan array binding signal (z-score),[11],0.429
same,glycan array binding signal (z-score),[12],0.139
same,glycan array binding signal (z-score),[13],-0.164
same,glycan array binding signal (z-score),[14],-0.666
same,glycan array binding signal (z-score),[15],-0.368
same,glycan array binding signal (z-score),[16],-0.895
same,glycan array binding signal (z-score),[17],-0.494
same,glycan array binding signal (z-score),[18],-0.162
same,glycan array binding signal (z-score),[19],-0.601
same,glycan array binding signal (z-score),[20],-0.058
same,glycan array binding signal (z-score),[21],-0.69
same,glycan array binding signal (z-score),[22],-0.316
same,glycan array binding signal (z-score),[23],1.28
same,glycan array binding signal (z-score),[24],-0.346
same,glycan array binding signal (z-score),[25],-0.392
same,glycan array binding signal (z-score),[26],0.128
same,glycan array binding signal (z-score),[27],-0.681
same,glycan array binding signal (z-score),[28],-0.555
same,glycan array binding signal (z-score),[29],-0.225
same,glycan array binding signal (z-score),[30],-0.018
same,glycan array binding signal (z-score),[31],0.716
same,glycan array binding signal (z-score),[32],0.568
same,glycan array binding signal (z-score),[33],-0.452
same,glycan array binding signal (z-score),[34],0.408
same,glycan array binding signal (z-score),[35],-0.501
same,glycan array binding signal (z-score),[36],-0.169
same,glycan array binding signal (z-score),[37],0.059
same,glycan array binding signal (z-score),[38],1.58
same,glycan array binding signal (z-score),[39],1.35
same,glycan array binding signal (z-score),[40],-0.41
same,glycan array binding signal (z-score),[41],-1.06
same,glycan array binding signal (z-score),[42],0.076
same,glycan array binding signal (z-score),[43],-1.08
same,glycan array binding signal (z-score),[44],-0.728
same,glycan array binding signal (z-score),[45],0.438
same,glycan array binding signal (z-score),[46],-0.704
same,glycan array binding signal (z-score),[47],-0.236
same,glycan array binding signal (z-score),[48],1.14
same,glycan array binding signal (z-score),[49],0.327
same,glycan array binding signal (z-score),[50],-0.195
same,glycan array binding signal (z-score),[51],-0.879
same,glycan array binding signal (z-score),[52],0.013
same,glycan array binding signal (z-score),[53],3.16
same,glycan array binding signal (z-score),[54],0.081
same,glycan array binding signal (z-score),[55],-0.572
same,glycan array binding signal (z-score),[56],-0.654
same,glycan array binding signal (z-score),[57],-0.532
same,glycan array binding signal (z-score),[58],1.31
same,glycan array binding signal (z-score),[59],-0.271
same,glycan array binding signal (z-score),[60],-0.365

# Random excerpt: 3 records from the list.
binder,measurement,setting,value
B1,glycan array binding signal (z-score),[45],0.438
same,glycan array binding signal (z-score),[15],-0.368
same,glycan array binding signal (z-score),[34],0.408
